Library compounds against nucleic acid targets

Data from the ROBIN nucleic acid binder screens, doi:10.1002/anie.202211358.

Targets, with sequences 5′ to 3′:
T1: TPP riboswitch RNA three-way junction, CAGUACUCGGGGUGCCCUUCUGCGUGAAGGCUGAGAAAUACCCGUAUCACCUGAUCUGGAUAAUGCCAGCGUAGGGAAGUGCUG. Hit rate about 0.7% of about 24,000 compounds.
T2: SAM-II riboswitch RNA pseudoknot, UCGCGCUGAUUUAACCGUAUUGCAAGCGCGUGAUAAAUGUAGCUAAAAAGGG. Hit rate about 1% of about 21,000 compounds.
T3: PreQ1 riboswitch RNA pseudoknot, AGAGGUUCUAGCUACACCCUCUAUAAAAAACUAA. From B. subtilis. Hit rate about 0.7% of about 24,000 compounds.

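The test is a small-molecule microarray: each compound is printed twice on a reactive slide, and binding shows as fluorescence of the labelled oligonucleotide after washing. For the PreQ1, TPP and SAM-II riboswitches the laboratory earlier reported (doi:10.1038/s41467-019-09493-3) 1 µM RNA, 2 h, and a rule that included a mean Z-score above 3 (spot signal-to-noise against the whole library), a score well above that on a control array, and duplicate spots agreeing (coefficient of variation under 100). The data file gives only the calls; its cut-offs may differ, and compounds hitting several targets are kept. These are primary screening calls, not affinities; a compound without a hit may have attached poorly or may still bind in solution.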
Key: yes = hit, no = tested without a hit.
Compounds were drawn at random from those tested, without regard to their results.
A dash means that no call is listed here.

compound	T1	T2	T3
O=c1[nH][nH]c2c1CCN(CC1(O)CCNC1)CC2 (stereo not given)	no	no	no
CS(=O)(=O)n1nc(OC(=O)c2ccccc2Cl)cc1N	no	no	no
Cc1ccc(NC(CNS(=O)(=O)c2ccccc2)c2ccccc2)cc1 (stereo not given)	no	-	no
Cc1cc(C2CCC2)nc(N2C[C@H]3CN(CCO)C[C@@]3(C(=O)O)C2)n1	no	no	no
CSC(=O)NC(=O)NC(=O)c1ccc([N+](=O)[O-])cc1	no	no	no
Cc1c(CCCN)c2ccccc2n1Cc1ccccc1	no	no	no
C[C@](N)(Cc1ccc(O)c(O)c1)C(=O)O	no	no	no
CCN(CC)CCNC(=O)c1ccc2nc(-c3ccccc3)c(-c3ccc(CN4CCC(n5c(=O)[nH]c6ccccc65)CC4)cc3)nc2c1	no	no	no
O=C1Nc2ccccc2NC12CCN(c1ncnc3[nH]ccc13)CC2	no	no	no
O=C1c2cccc3cc(Br)cc(c23)C(=O)N1CCO	no	no	no
Clc1cccc(NC(c2ccccc2)c2nnc(-c3ccccc3)o2)c1 (stereo not given)	no	no	no
CCC(C)(C)Nc1c(-c2ccc(C)cc2)c(=O)c1=O	no	-	yes
O=C(Cn1cccnc1=O)N1C[C@H](CO)C[C@H](CN2CCOCC2)C1	no	no	no
Cc1ccc(Nc2c(-c3ccc(N(C)C)cc3)nc3ncccn23)cc1	no	no	no
Cc1nn(CCO)cc1CN1CCCC1c1nc2c(C)cccc2[nH]1 (stereo not given)	no	no	no
NCCCN1C(=O)CC[C@H]2CN(C(=O)CCc3ccco3)CC[C@H]21	no	no	no
COc1ccc(N2CCN(CCNc3ncnc4c3nc3n4CCCC3)CC2)cc1	no	-	no
Cc1cc2oc(=O)cc(C)c2cc1N	no	no	no
C#CCN1C(=O)C2(C(C#N)=C(N)OC(C)=C2C(=O)OC(C)(C)C)c2ccccc21 (stereo not given)	no	no	no
Cc1cc(OCC(=O)NCCO)cc(C)c1Cl	no	no	no
COc1ccc(CNc2c(S(=O)(=O)c3ccccc3)cnc3ccccc23)cc1	no	-	no
O=C([O-])c1c(Cl)c(Cl)c(Cl)c(Cl)c1-c1c2cc(I)c(=O)c(I)c-2oc2c(I)c([O-])c(I)cc12	no	no	no
Cn1c(=O)c2c(c3ccccc31)OC(N)=C(C#N)C2c1ccc2ccccc2c1 (stereo not given)	no	no	no
COC(=O)CNC(c1ccccc1)c1cc(Br)ccc1NS(=O)(=O)c1ccccc1 (stereo not given)	no	no	no
Cc1nc2nc(CN)nn2c(C)c1CCC(=O)Nc1cccc(C(F)(F)F)c1	yes	-	no
CCC(Nc1cccc(OC)c1)C(=O)NCc1cnc(C)cn1 (stereo not given)	no	no	no
CN(C)c1ccc(/C=N/NC(=O)c2cnc3ccccc3c2)cc1	no	no	no
Cc1cccc2c1NC(=O)C21C(C#N)=C(N)Oc2c1c(=O)oc1ccccc21 (stereo not given)	no	no	no
CCCCCCCC1(C)NC(=O)NC1=O (stereo not given)	no	no	no
CCn1ccc(CN2CC[C@@H](c3ccc(F)cc3)[C@H](O)C2)n1	no	no	no
Cc1cc(C)cc(NC(=O)Cn2nnc(C(=O)Nc3ccc(Cl)cc3)c2N)c1	no	no	no
COc1cc(CCC(C)O)c(OC)c2c1OCO2 (stereo not given)	no	no	no
Cc1ccc(Nc2cc(N3CCN(C(=O)c4ccc5c(c4)OCO5)CC3)nc(C)n2)cc1	no	-	no
COCCNc1nc2c(c(N(C)CCc3ccccn3)n1)CCNCC2	no	no	no
CC[n+]1cn(CC(O)COc2ccc(OC)cc2)c2cc(C)c(C)cc21 (stereo not given)	no	no	no
N#Cc1nc(-c2ccc(F)cc2)oc1NC1CCCCC1	no	no	no
C=CCn1cc(CNC(C)C(=O)Nc2ccc(F)cc2C)c(C)n1 (stereo not given)	no	no	no
CCN(CCc1ccccn1)C(=O)c1cc(-c2cnc(N)nc2)nc2c(C)cccc12	no	no	no
Cc1cc(Br)ccc1NCc1cccnc1	no	no	no
O=C(c1ccc2c(c1)OCCO2)N1C[C@H](CO)C[C@H](CN2CCOCC2)C1	no	no	no
NC(=O)c1ccnc(N2CCCC(CO)(CCc3ccccc3)C2)c1 (stereo not given)	no	no	no
CCOC(=O)c1c(N)n(-c2ccccc2CC)c2nc3ccccc3nc12	no	no	no
CCOC(=O)N1CCC(NCCc2nc(C)c(C)s2)CC1	no	no	no
c1ccc(-c2csc(NCc3ccco3)n2)cc1	no	no	no
COc1ccc(S(=O)(=O)N(C(C)=O)c2ccccc2/C=C/c2cc[n+]([O-])cc2)cc1	no	no	no
Cc1ccccc1N1CCN(C(=O)c2cn(C3CCNCC3)nn2)C(C)C1 (stereo not given)	no	no	no
O=S(=O)(NC[C@@H]1CCNC[C@H]1O)c1cccc2ccccc12	no	no	no
C#Cc1ccc(CN2CC[C@@H](CNC(=O)N3CCOCC3)[C@H](O)C2)cc1	no	no	no
Cc1cc(Nc2ccc(Cl)c(C(F)(F)F)c2)n2ncnc2n1	no	no	no
COc1ccc(Nc2ncc3c(n2)CC(c2ccc(F)cc2)CC3=O)cc1 (stereo not given)	no	no	no
N#CC1=C(N)OC2=C(C(=O)CC(c3ccccc3)C2)C12C(=O)Nc1ccc(Br)cc12 (stereo not given)	no	no	no
CC1(COc2ccc3c(c2)ncn3-c2ccc3cccc(N4CCC(N)CC4)c3n2)COC1	no	no	no
Nc1cccc(C(=O)CC2(O)C(=O)N(Cc3ccccc3)c3ccccc32)c1 (stereo not given)	no	no	no
CC1=CC2(C)NC(=O)C(C)C12 (stereo not given)	no	no	no
CCOc1ccccc1CNc1ccc(N2CCN(Cc3ccccc3)CC2)cc1	no	no	no
CCC1(CO)CCCN(c2cc(C(=O)N3CCOCC3)ccn2)C1 (stereo not given)	no	no	no
C=CCOC(=O)C1=C(C)OC(N)=C(C#N)C1c1cccc2ccccc12 (stereo not given)	no	no	no
O=S(=O)(c1ccc(-c2csc(Nc3ccc(F)cc3)n2)cc1)N1CCOCC1	no	no	no
CCCCNc1nc(Oc2ccc(OCC)nn2)nc(N(C)C)n1	no	-	no
c1cc(OCCN2CCCCC2)cc(-c2n[nH]c3ccc(-c4ncn[nH]4)cc23)c1	no	no	no
Cc1cc(NC2CCCCC2)n2nc(C(F)(F)F)nc2n1	no	-	no
CC(=O)c1cnc(Nc2nc(C)c3cccc(C)c3n2)nc1C	no	no	no
O=C1CC[C@H]2CN(CCC(F)(F)F)CC[C@H]2N1CCCCO	no	no	no
CNc1oc(-c2ccc(F)cc2)nc1C#N	no	no	no
Cc1ccc(NC(=O)c2ccc(CN3CC[C@H](N(C)C)C3)c(C(F)(F)F)c2)cc1Nc1ncc(-c2cncnc2)cn1	no	no	no
Cc1cc2nc3c(=O)[nH]c(=O)nc-3n(C[C@@H](O)[C@@H](O)[C@@H](O)CO)c2cc1C	no	no	no
COCCc1noc(CNC2CCN(c3ncnc4[nH]cnc34)CC2)n1	no	no	no
COc1cc(Nc2c(C#N)cnc3cc(OCCCN4CCN(C)CC4)c(OC)cc23)c(Cl)cc1Cl	no	no	no
CC(=O)Nc1cccc(-c2cc(N)nc(N3CCCC3)n2)c1	no	no	no
Cc1noc(C)c1CNC(C)COc1ccccc1 (stereo not given)	no	no	no
CC(C)c1nc(CCNC(=O)C2NCCc3[nH]cnc32)cs1 (stereo not given)	no	no	no
Cc1ccn2c(NC3CCCCC3)c(-c3ccccn3)nc2c1	no	no	no
Cc1ccc(-c2cc(C(=O)N3CC(O)CO3)c3ccccc3n2)cc1 (stereo not given)	no	no	no
Cc1cnc(CN2CCC(N)CC2)c(C)c1O	no	no	no

For reference, 8 entries once more:

compound	T1	T2	T3
COc1ccc(Nc2ncc3c(n2)CC(c2ccc(F)cc2)CC3=O)cc1 (stereo not given)	no	no	no
Cc1c(CCCN)c2ccccc2n1Cc1ccccc1	no	no	no
O=c1[nH][nH]c2c1CCN(CC1(O)CCNC1)CC2 (stereo not given)	no	no	no
COCCNc1nc2c(c(N(C)CCc3ccccn3)n1)CCNCC2	no	no	no
Cc1cc2oc(=O)cc(C)c2cc1N	no	no	no
CC(=O)c1cnc(Nc2nc(C)c3cccc(C)c3n2)nc1C	no	no	no
Cc1ccn2c(NC3CCCCC3)c(-c3ccccn3)nc2c1	no	no	no
CCOC(=O)N1CCC(NCCc2nc(C)c(C)s2)CC1	no	no	no